Measurements from the supplement of paper PMC12067093, “Discovery and optimisation of a covalent ligand for TRIM25 and its application to targeted protein ubiquitination” (Chemical Science, 2025).
The list shows a part of the results.

Amino acid sequences for entries named in this document (tags omitted). A change or cut given only in a name is not applied to a line headed by its entry.
UniProt Q9NRR8: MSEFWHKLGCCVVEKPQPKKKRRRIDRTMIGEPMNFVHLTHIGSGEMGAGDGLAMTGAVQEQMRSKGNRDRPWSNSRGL
UniProt Q6ZU80: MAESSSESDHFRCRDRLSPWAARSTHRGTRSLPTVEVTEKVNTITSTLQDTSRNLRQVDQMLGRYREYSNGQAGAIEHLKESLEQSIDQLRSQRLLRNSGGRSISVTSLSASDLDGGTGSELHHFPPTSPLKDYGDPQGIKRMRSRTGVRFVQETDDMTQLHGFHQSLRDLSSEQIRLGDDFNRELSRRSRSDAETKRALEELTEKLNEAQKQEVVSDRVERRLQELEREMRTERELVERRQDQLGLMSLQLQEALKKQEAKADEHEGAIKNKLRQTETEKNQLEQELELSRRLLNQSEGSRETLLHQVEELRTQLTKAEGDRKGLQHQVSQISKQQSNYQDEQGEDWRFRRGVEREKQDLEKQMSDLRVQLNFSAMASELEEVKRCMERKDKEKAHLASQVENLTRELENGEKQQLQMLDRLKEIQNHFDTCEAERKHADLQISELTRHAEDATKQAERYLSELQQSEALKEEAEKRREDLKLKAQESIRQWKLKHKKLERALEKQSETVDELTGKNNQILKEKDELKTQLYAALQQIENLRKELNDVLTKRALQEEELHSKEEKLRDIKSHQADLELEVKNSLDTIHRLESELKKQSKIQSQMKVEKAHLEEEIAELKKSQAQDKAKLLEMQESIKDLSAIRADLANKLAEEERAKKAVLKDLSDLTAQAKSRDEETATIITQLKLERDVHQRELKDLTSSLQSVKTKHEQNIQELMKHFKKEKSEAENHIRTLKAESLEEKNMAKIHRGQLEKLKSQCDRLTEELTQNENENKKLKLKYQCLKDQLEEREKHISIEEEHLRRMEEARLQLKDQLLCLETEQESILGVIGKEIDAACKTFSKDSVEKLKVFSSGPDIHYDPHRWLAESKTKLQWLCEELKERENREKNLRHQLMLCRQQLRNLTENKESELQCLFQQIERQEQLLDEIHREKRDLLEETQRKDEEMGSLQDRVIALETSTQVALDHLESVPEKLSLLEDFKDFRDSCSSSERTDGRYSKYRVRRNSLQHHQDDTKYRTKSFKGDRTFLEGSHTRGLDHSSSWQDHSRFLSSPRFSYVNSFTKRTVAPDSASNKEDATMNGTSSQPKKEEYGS
UniProt P15529: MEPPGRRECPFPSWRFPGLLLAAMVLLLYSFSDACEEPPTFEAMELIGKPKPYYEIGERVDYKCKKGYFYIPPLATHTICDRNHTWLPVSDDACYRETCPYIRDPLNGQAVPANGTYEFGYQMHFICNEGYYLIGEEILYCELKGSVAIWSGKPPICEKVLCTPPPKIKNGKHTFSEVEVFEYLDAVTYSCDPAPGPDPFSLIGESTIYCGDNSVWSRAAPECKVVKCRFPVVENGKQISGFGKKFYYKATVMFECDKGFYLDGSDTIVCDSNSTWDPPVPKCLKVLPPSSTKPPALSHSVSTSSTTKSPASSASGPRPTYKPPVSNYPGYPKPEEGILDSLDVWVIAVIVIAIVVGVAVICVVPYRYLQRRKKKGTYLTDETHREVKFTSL
UniProt Q5SW79: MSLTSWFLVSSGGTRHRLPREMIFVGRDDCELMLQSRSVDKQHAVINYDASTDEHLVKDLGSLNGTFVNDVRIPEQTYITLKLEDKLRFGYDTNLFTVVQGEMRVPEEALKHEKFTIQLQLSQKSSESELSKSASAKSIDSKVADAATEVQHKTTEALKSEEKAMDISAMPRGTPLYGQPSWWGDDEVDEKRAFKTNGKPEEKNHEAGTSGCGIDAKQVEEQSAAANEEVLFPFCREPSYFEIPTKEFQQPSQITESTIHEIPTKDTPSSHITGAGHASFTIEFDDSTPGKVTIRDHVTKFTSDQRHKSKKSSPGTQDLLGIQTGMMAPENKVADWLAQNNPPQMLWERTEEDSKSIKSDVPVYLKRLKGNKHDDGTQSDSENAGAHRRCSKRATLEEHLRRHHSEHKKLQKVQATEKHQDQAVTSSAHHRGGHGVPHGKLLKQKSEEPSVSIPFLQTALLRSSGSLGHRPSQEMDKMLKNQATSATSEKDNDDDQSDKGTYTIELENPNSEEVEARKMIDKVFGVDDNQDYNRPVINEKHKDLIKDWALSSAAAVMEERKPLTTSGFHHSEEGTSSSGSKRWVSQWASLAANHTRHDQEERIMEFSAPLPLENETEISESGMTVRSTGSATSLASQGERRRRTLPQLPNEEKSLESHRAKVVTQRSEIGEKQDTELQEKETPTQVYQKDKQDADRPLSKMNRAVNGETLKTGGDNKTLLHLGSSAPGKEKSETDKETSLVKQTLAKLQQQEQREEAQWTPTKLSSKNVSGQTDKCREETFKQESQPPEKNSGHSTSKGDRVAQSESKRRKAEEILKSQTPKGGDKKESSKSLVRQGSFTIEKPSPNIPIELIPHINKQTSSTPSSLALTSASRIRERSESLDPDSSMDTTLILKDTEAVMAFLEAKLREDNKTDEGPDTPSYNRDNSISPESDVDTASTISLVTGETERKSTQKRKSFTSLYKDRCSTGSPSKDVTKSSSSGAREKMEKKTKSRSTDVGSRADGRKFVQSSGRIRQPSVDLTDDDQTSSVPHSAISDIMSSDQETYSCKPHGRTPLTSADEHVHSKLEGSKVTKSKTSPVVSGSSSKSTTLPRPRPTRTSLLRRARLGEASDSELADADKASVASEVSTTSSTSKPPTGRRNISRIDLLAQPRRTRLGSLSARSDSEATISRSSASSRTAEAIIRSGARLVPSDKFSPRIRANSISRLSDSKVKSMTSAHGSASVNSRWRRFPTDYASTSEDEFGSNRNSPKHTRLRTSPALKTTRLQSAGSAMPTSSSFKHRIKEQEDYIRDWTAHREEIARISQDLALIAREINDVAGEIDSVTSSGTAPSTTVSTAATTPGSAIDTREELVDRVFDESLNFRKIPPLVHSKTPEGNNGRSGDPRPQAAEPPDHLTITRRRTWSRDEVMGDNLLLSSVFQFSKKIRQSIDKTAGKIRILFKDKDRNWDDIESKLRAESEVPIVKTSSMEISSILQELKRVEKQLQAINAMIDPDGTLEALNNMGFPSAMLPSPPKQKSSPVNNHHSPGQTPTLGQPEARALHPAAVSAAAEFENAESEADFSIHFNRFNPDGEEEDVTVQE
UniProt P49454: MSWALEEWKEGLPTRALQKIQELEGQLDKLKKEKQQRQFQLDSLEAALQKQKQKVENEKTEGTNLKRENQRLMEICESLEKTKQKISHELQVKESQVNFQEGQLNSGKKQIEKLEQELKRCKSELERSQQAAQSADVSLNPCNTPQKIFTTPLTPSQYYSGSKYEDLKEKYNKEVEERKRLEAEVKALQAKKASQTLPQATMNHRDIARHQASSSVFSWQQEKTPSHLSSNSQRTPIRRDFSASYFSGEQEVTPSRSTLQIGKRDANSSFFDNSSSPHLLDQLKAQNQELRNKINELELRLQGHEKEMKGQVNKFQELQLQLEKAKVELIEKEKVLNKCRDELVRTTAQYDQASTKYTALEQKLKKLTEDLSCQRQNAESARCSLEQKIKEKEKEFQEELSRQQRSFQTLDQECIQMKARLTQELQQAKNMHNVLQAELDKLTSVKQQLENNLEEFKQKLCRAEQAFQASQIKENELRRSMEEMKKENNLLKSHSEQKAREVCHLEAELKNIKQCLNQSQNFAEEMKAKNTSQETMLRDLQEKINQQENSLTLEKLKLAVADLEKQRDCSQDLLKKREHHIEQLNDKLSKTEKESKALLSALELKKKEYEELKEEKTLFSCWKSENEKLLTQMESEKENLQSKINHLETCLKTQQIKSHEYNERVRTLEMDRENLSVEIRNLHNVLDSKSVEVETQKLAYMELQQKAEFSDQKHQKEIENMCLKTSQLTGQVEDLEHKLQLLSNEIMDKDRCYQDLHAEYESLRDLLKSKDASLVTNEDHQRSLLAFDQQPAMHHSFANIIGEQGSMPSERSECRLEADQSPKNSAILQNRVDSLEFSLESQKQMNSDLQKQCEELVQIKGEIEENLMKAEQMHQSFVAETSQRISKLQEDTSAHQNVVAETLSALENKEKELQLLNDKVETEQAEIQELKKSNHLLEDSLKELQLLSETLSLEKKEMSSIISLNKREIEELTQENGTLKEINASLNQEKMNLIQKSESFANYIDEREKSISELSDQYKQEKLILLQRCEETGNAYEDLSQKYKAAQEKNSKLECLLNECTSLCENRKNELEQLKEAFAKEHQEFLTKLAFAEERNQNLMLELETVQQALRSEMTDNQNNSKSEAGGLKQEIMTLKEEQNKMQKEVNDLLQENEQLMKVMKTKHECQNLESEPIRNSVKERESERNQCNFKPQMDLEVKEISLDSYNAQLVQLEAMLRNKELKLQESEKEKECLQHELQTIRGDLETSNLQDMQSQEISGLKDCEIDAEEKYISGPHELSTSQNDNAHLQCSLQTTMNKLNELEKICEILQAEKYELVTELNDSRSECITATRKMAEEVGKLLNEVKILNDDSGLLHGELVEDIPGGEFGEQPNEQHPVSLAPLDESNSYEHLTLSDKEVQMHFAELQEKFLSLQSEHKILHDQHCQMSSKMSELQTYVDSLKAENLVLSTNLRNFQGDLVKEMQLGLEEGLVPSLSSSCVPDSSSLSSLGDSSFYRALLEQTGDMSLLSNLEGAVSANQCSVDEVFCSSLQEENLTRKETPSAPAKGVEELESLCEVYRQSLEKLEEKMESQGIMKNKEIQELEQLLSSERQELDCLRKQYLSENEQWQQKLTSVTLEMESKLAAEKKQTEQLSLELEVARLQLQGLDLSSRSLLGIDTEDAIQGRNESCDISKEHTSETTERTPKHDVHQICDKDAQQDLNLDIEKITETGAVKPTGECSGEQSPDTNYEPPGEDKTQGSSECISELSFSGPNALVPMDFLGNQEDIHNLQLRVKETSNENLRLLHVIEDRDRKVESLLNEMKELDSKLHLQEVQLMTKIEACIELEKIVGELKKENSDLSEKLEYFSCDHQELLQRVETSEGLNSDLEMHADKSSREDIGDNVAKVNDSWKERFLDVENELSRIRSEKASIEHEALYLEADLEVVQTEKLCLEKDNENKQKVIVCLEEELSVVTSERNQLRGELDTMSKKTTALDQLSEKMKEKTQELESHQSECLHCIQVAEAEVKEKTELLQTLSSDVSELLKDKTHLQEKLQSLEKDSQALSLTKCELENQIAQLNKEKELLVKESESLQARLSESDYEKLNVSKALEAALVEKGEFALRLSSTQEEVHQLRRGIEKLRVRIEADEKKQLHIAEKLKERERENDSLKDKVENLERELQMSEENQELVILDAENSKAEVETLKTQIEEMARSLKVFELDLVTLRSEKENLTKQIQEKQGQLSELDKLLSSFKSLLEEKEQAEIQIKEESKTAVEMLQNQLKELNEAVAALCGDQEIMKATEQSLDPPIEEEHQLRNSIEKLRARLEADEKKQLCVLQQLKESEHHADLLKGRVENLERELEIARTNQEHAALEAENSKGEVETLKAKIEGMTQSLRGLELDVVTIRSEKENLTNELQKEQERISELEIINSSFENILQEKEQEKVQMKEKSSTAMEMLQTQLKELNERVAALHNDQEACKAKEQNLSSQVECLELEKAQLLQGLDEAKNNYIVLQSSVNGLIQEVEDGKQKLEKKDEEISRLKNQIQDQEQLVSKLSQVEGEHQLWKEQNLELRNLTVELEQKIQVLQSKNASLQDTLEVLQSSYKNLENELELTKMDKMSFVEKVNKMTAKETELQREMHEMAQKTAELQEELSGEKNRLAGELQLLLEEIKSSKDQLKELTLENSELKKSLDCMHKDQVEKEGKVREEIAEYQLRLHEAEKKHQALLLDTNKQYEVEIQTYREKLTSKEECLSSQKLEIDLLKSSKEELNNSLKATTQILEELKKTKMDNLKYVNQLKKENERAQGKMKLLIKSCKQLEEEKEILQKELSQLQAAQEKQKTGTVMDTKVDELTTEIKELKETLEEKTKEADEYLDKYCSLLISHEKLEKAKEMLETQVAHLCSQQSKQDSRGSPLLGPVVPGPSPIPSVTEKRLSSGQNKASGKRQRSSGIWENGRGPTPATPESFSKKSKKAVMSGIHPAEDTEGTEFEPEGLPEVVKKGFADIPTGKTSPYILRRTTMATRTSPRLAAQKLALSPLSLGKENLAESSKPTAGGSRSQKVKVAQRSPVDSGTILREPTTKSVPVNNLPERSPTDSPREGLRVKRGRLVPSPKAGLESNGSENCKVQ

Compound: CC1Cc2ccccc2N1C(=O)C1CCCN(C1)C(=O)CCl (mixture of isomers) [TRIM25 ligand 11 (diastereomer mixture)]
Test: probe-labelled cysteine peptide fold change vs DMSO (competition) (log2 fold change); higher = less target engagement (more negative = stronger competition)
Conditions: THP-1, incubation time: 4 h
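Also: competitive chemoproteomic profiling in live THP-1 cells with an iodoacetamide desthiobiotin (IA-DTB) probe, comparing probe-labelled peptide intensities in compound-treated cells against DMSO-treated controls.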

Target	probe-labelled cysteine peptide fold change (10 µM)	probe-labelled cysteine peptide fold change (50 µM)
CCT7_Q99832_511_INALTAASEAACLIVSVDETIK (UniProt Q99832)	0.237	0.0328
CDC42SE1_Q9NRR8_11_LGCCVVEKPQPK (UniProt Q9NRR8)	-0.224	-0.137
CEP55_Q53EZ4_443_CNIQYPATEHR (UniProt Q53EZ4)	-0.039	0.00565
CEP128_Q6ZU80_989_DSCSSSER (UniProt Q6ZU80)	0.0392	-0.00849
CEP131_Q9UPN4_648_CEAVVAELK (UniProt Q9UPN4)	-0.0153	-0.0343
CD46_P15529_157_GSVAIWSGKPPICEK (UniProt P15529)	0.061	0.025
CDC73_Q6P1J9_145_IEDEECVR (UniProt Q6P1J9)	0.0862	0.104
CEP128_Q6ZU80_839_EIDAACK (UniProt Q6ZU80)	0.0414	0.0453
CCT6A_P40227_282_VCGDSDK (UniProt P40227)	0.00986	-0.0237
CEP192_Q8TEP8_1828_LTSNCEIR (UniProt Q8TEP8)	0.0778	0.0772
CEP170_Q5SW79_30_EMIFVGRDDCELMLQSR (UniProt Q5SW79)	-0.0857	-0.132
CEP192_Q8TEP8_2335_CSPISGLLESHGIQK (UniProt Q8TEP8)	-0.00846	0.0182
CENPF_P49454_339_CRDELVR (UniProt P49454)	0.0543	0.151
CEP170_Q5SW79_967_CSTGSPSK (UniProt Q5SW79)	-0.262	-0.0381
CCT5_P48643_429_VVYGGGAAEISCALAVSQEADK (UniProt P48643)	0.0942	0.0599

Single records, as listed above. Values in the order: probe-labelled cysteine peptide fold change (10 µM)	probe-labelled cysteine peptide fold change (50 µM)
CENPF_P49454_339_CRDELVR (UniProt P49454) is entered as 0.0543	0.151
CEP131_Q9UPN4_648_CEAVVAELK (UniProt Q9UPN4) is entered as -0.0153	-0.0343
